Literature values, collected in patent publication US4287035A, “Method for producing rapid pH changes” (priority 1979, dated 1981).
Read-outs that look alike come from different tables or passages of the source. The name of at least one read-out is uncertain.

Key:
[1] = first excited singlet state, cited from earlier work
[2] = first excited singlet state; cited from earlier work

Row | Compound | pK(S1) ([1]; reaction as drawn in the line of Table II) | pK(S1) ([1]; second 1-Naphthoic acid line, reaction drawing 10) | pK(S1) [2]
1 | O=C(O)c1cccc2ccccc12 [1-Naphthoic acid] | 7.7 | 2.0 | 
2 | O=S(=O)(O)c1ccc2cc(O)ccc2c1 [2-Naphthol-6-Sulfonate] |  |  | 1.9
3 | c1ccc2c(c1)ccc1ccccc12 [Phenanthrene] |  |  | 19.5
